Over roughly 1,000 compounds, “thermal shift dTm” has its median near 0.19; the highest 2% begin near 1.7. This is one part of the list. The source made the active and inactive calls.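 How the source made its calls: active means mean rise in melting temperature of at least 1 degC over same-plate control wells; inactive means below that, where a call was filed.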

Chains of the proteins cited; added tags and fusions are not shown. Lines headed by an entry give the natural chain unless they say otherwise; changes in a name come on top.
UniProt O00391: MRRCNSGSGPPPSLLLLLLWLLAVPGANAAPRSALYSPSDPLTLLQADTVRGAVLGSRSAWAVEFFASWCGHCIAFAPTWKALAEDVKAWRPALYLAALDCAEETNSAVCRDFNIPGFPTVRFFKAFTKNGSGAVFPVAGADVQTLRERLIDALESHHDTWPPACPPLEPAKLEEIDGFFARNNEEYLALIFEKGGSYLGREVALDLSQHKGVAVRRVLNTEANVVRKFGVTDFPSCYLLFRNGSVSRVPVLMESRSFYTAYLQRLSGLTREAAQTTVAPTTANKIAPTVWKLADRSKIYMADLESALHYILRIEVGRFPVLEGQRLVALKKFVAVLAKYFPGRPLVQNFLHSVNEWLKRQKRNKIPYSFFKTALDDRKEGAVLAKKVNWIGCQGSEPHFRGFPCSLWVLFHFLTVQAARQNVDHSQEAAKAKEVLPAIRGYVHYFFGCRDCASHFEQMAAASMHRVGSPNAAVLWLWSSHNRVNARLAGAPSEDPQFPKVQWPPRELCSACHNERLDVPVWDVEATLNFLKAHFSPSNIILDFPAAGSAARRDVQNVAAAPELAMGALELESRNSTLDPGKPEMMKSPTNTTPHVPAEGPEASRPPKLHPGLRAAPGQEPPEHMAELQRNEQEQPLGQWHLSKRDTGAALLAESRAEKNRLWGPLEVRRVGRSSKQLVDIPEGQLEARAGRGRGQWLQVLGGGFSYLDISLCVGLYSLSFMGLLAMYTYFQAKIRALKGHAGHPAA

The assay addresses Sulfhydryl oxidase 1 (Homo sapiens) (UniProt O00391). The assay is described as follows: ligand-induced melting shift of human QSOX1 – biophysical, protein thermal shift, single concentration, QSOX1 inhibitor project, confirmation (AID 1347422).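 Further: dTm is compound Tm minus mean Tm of DMSO-only wells on that plate.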 As to conditions: recombinant hQSOX1 thermal shift, Sypro Orange, at 25 µM, stronger effect = higher value.
Take `COc1cc(CO)cc(Cl)c1OCc1cccc2ccccc12`: the thermal shift dTm was 0.21 °C. For the compound `CC(=O)Nc1cccc(OCC(=O)Nc2ccc(Cl)cc2)c1`, the thermal shift dTm was determined as 0.25 °C. For `O=C(Nc1ccc(N2CCOCC2)c(Cl)c1)c1ccccn1`, the thermal shift dTm stood at 0.14 °C. `O=C(Cn1cnc2ccccc2c1=O)Nc1nnc(SCc2ccccc2Cl)s1`: the thermal shift dTm was inactive: -0.04 °C. `NC(=O)c1ccnc(-c2cc3ccccc3s2)c1`: the thermal shift dTm is active: 1.16 °C. With `COc1ccc(C(=O)/C=C/c2cccc(OC)c2)cc1` the figure was active: 2.07 °C; with `COc1ccc(Cl)cc1NC(=O)Nc1ccccc1F`, 0.56 °C. On to `CCC(=O)N1CCN(c2ccc(NC(=O)c3cccs3)cc2Cl)CC1`, for which the thermal shift dTm came to 0.65 °C. Regarding `CCOc1ccc(C2C(C#N)=C(N)Oc3cc(N)ccc32)cc1` (stereo unspecified), the thermal shift dTm stood at 0.48 °C. As for `CCOc1ccc(/C=C/C(=O)Nc2ccc(OC)cc2OC)cc1`, the thermal shift dTm turned out to be 0.02 °C. With `CSC1(NC#N)NCCc2c1[nH]c1ccccc21` (stereo unspecified) the figure was inactive: -0.05 °C. Turning to `COc1ccc(-c2cc(-c3ccccc3)n3c(=O)c4ccccc4nc3n2)cc1`, the thermal shift dTm worked out at 0.67 °C. Turning to `CCC(=O)c1ccc(OCC(=O)Nc2ccc(NC(C)=O)cc2)cc1`, the thermal shift dTm is inactive: -0.03 °C. Regarding `CSC1=N/C(=C\c2ccc(-c3cccc(Cl)c3)o2)C(=O)S1`, the thermal shift dTm is 0.91 °C. As to `COc1ccc2c(c1OC)C(=O)N(c1ccc(Cl)cc1)C2`, the thermal shift dTm turned out to be 0.81 °C.

Turning to `CC(=O)Nc1ccc(C(=O)NCCc2c[nH]c3ccc(C)cc23)cc1`, the thermal shift dTm stood at 0.86 °C. With `COc1ccc(-c2csc(-c3ccccc3)n2)cc1Br` the figure was 0.11 °C. Consider `Cc1nnc2c3ccccc3nc(-c3ccc(Br)cc3)n12`, for which the thermal shift dTm is inactive: -0.04 °C.

On to `CCOc1ccc(C(=O)Nc2ccc(-c3csc(C)n3)cc2)cc1`, for which the thermal shift dTm was found to be 0.19 °C. With `N#Cc1cnc(SCC(=O)Nc2nc3ccccc3s2)nc1N`, the thermal shift dTm came to 0.32 °C.

In the case of `CCCCOc1cccc(C(=O)Nc2cccc(-c3nn[nH]n3)c2)c1`, the thermal shift dTm came to 0.74 °C.

For `CCOC(=O)Cc1csc(NC(=O)c2ccc(C)o2)n1`, the thermal shift dTm is 0.1 °C. With `Cc1sc(NC(=O)Cc2cccs2)nc1-c1cccc(Cl)c1` the figure was inactive: -0.17 °C; with `O=C(Nc1nc2ccc(S(=O)(=O)N3CCCC3)cc2s1)c1ccco1`, 0.15 °C; with `O=C(COc1ccc(Cl)cc1Cl)NCCSCc1c(F)cccc1Cl`, inactive: -0.12 °C. With `O=C(Nc1ccccc1)c1ccc(-c2cccnc2)o1`, the thermal shift dTm came to 0.04 °C. For `Cc1cc(Cl)c(S(=O)(=O)NC2CCCCC2)cc1OCC(=O)Nc1nncs1`, the thermal shift dTm is 0.15 °C. To `Nc1c(C(=O)NC2CCCCC2)nnn1-c1cccc(Cl)c1` belongs 0.83 °C. With `Cc1ccc(NC(=O)Nc2cnccn2)cc1C`, the thermal shift dTm is 0.04 °C. With `COc1cccc(-c2nc3c(cnn3CC3CC=CCC3)[nH]2)c1O` (stereo unspecified) the figure was 0.61 °C.

With `CC1Cc2cc(C(=O)Nc3ccc4c(c3)OCCO4)ccc2O1` (stereo unspecified), the thermal shift dTm worked out at 0.14 °C. With `Cn1c(SCCO)nc2c(c1=O)C1(CCCCC1)Cc1ccccc1-2` the figure was 0.21 °C; with `Cc1sc(NC(=O)C(F)(F)F)nc1-c1ccc(Cl)cc1`, 0.25 °C; with `CC1CCN(C(=O)c2ccccc2C(=O)c2ccc(-c3ccccc3)cc2)CC1`, 0.16 °C.

In the case of `Cc1cc(O)c(-c2n[nH]c3c2C(c2ccccc2)N(Cc2ccco2)C3=O)cc1C` (stereo unspecified), the thermal shift dTm was 0.77 °C. On to `Cc1cc(NC(=S)Nc2ccc(C)c(Cl)c2)n[nH]1`, for which the thermal shift dTm was active: 1.55 °C. Regarding `CCOc1ccc(S(=O)(=O)N2CCC(C(=O)NCCC3=CCCCC3)CC2)cc1`, the thermal shift dTm was 0.16 °C. As for `CCC(Sc1nnnn1-c1ccccc1)C(=O)Nc1nnc(C(F)(F)F)s1` (stereo unspecified), the thermal shift dTm was 0.99 °C. `CCc1ccc(C(=O)Nc2ccc(S(=O)(=O)N(C)C)cc2)s1`: the thermal shift dTm is 0.48 °C. For `CCOC(=O)c1ccc(NC(=S)Nc2ccc(OCc3ccccc3)cc2)cc1`, the thermal shift dTm amounted to 0.58 °C. With `Cc1ccccc1-n1c(CCC(=O)O)ccc1-c1ccc(Br)cc1` the figure was 0.11 °C; with `OCc1ccc(OCc2ccc(F)cc2)c(Br)c1`, 0.58 °C; with `COc1ccc(-c2noc(CN(C(C)C)S(=O)(=O)c3ccccc3)n2)cc1`, 0.11 °C.

Consider `Cc1ccc(COc2ccc(CO)cc2Br)cc1`, for which the thermal shift dTm amounted to 0.54 °C. `CC(=O)Nc1cccc(NC(=O)/C=C/c2cccs2)c1`: the thermal shift dTm was inactive: -40.9 °C. In the case of `COc1ccc(-c2c(-c3ccc(OC)c(C)c3O)n[nH]c2C(F)(F)F)cc1`, the thermal shift dTm was 0.76 °C.

Take `O=C(CCC1CCCN(C(=O)c2ccoc2)C1)NCc1ccccc1F` (stereo unspecified): the thermal shift dTm was found to be 0.15 °C.

Take `CC(C)(C)c1ccc(OCCNC(=O)c2cccc(Cl)c2)cc1`: the thermal shift dTm turned out to be 0.12 °C.

For `CCNC(=O)c1cc(-c2ccc(OC)cc2)nc2ccccc12`, the thermal shift dTm is 0.1 °C. With `Cc1cc(Cl)ccc1OCCNC(=O)c1ccc(Cl)cc1`, the thermal shift dTm worked out at 0.17 °C. For `CCCCc1ccc(C(=O)Nc2cccc(-c3nn[nH]n3)c2)cc1`, the thermal shift dTm was found to be 0.51 °C. As for `COc1ccc(OC)c(NC(=O)Nc2cccc(NC(C)=O)c2)c1`, the thermal shift dTm was active: 1.91 °C. With `COc1cccc(OCCOCCOc2ccc([N+](=O)[O-])cc2Cl)c1`, the thermal shift dTm was 0.11 °C. With `Cc1ccc(-n2nnnc2SCC(=O)Nc2nnc(C(F)(F)F)s2)cc1C`, the thermal shift dTm was active: 1.27 °C.

For the compound `COc1cccc(C(=O)Nc2ccc(N3CCCC3)cc2)c1`, the thermal shift dTm is 0.39 °C. As for `N/C(Cc1ccc(Cl)c(Cl)c1)=N\OC(=O)c1ccc2c(c1)OCO2`, the thermal shift dTm worked out at 0.21 °C.

(Values after PubChem BioAssay AID1347422 (Sanford-Burnham Center for Chemical Genomics, 2020).)
